No constants are given. Whether binding was seen depends on the method and setting. Some entries that bind do so weakly or less than the wild type.

By UniProt entry, the sequences of proteins in these tests, tags left out. Residues count along the entry.
UniProt P70424, residues 23-653: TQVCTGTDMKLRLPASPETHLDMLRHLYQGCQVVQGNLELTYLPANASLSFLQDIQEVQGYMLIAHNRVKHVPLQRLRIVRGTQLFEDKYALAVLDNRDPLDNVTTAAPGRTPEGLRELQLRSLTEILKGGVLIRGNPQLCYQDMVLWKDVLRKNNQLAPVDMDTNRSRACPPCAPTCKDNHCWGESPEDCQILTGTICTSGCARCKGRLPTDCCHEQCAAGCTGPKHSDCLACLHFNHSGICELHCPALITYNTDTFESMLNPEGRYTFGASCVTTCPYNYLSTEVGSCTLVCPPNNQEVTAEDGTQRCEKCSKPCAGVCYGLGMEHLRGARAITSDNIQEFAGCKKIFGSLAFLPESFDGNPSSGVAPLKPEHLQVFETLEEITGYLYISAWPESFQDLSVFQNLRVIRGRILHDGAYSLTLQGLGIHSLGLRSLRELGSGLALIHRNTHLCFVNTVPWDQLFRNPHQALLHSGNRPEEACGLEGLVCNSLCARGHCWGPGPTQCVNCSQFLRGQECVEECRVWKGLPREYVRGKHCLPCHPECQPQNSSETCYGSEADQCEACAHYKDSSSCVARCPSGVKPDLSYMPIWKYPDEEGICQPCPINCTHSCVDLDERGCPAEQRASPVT
UniProt P06494, residues 23-1257: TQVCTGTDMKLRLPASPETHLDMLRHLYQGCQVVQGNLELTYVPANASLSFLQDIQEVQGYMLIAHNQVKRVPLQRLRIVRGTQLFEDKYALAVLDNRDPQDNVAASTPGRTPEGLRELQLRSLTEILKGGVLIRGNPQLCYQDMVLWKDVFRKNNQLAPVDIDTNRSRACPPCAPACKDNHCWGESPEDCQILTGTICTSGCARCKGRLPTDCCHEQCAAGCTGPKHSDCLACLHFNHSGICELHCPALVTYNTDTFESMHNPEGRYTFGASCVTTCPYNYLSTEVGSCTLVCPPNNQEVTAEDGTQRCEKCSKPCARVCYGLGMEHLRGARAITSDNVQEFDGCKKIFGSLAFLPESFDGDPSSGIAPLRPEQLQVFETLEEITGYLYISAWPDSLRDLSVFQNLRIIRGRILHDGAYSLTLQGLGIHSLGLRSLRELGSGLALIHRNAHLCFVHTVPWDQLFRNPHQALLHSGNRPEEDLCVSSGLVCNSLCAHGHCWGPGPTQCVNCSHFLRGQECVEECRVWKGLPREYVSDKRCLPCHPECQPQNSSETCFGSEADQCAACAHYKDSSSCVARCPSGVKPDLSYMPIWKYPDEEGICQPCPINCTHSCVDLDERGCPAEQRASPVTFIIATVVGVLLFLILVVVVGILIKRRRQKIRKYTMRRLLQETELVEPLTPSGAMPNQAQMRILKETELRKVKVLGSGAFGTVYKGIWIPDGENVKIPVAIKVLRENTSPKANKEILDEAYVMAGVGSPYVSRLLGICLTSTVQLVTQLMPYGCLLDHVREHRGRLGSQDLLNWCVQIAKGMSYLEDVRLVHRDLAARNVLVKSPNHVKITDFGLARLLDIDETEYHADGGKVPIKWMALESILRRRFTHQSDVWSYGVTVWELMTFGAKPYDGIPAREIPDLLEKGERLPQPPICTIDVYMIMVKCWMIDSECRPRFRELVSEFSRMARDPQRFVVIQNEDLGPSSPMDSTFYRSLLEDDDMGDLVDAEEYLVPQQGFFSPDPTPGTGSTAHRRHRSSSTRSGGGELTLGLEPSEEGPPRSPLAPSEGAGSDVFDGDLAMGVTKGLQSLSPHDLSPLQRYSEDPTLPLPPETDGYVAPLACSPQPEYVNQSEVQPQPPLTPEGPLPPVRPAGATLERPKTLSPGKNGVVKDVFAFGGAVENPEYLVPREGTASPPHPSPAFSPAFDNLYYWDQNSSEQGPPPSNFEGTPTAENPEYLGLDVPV

This is an account of results in patent US20130101549A1.

In assay [1] the target is wild type mHER2/ErbB2 (ELISA antigen of Example 3) (mouse) (UniProt P70424). The experiment in a line: ELISA.
For assay [2], the target named is rat HER2 on Tubo cells (rat) (UniProt P06494). The experiment in a line: FACS on Tubo cells.

B1: BIIB71F10 Fab (Fab, V domains shown)
VH: EVQLLESGGGLVQPGGSLRLSCAASGFTFSSYGMVWVRQAPGKGLEWVSSISSSGGLTWYADSVKGRFTISRDNSKNTLYLQMNSLRAEDTAVYYCASPPGIAVARDYWGQGTLVTVSS
VL: DIQMTQSPSSLSASVGDRVTITCRASQGISNYLAWYQQKPGKVPKLLIYAASTLQSGVPSRFSGSGSGTDFTLTISSLQPEDVATYYCQKYNSALLTFGGGTKVEIK
Take B1: the binding entry in assay [1] and in assay [2] was “binds” each time.
